Literature values in article PMC11223151 (ACS Omega, 2024).

Test system: human breast cancer cell line (MCF-7)
Conditions: cited from earlier work

Compound: CC/C(=C(\c1ccccc1)c1ccc(OCCN(C)C)cc1)c1ccccc1 [tamoxifen]
- IC50 for MCF-7 cells: 8 µg/mL
